Assay results as given in article PMC7190159, “The L motifs of two moss pentatricopeptide repeat proteins are involved in RNA editing but predominantly not in RNA recognition”.
The comparison behind a weaker result is the experiment's own reference, which may not be listed here.

By UniProt entry, the sequences of proteins in these tests, tags left out.
UniProt A0A2K1IWP1, entry or part of it V188N M289T V390T D420N L491N D521S V592N D623S: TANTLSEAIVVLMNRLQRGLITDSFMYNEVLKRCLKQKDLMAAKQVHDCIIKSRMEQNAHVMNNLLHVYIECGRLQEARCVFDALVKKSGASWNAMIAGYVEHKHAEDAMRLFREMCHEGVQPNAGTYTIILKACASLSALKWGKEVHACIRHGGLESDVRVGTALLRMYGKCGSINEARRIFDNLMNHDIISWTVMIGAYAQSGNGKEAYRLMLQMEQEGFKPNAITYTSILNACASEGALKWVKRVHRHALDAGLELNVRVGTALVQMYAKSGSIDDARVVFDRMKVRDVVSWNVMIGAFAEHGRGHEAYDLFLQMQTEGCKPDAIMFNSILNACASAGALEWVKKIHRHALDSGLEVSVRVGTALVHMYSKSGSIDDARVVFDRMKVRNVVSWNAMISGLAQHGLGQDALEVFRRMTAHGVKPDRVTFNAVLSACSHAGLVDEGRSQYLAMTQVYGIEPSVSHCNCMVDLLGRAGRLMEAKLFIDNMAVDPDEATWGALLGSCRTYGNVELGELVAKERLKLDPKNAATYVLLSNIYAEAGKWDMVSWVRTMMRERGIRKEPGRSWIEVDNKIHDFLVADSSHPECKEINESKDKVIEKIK

Molecular target: 56ΔDYW-nad3L V188N,M289T,V390T,D420N,L491N,D521S,V592N,D623S (Physcomitrella patens) (UniProt A0A2K1IWP1)
Experiment: EMSA
Conditions: slight decrease relative to wt, still binds; 40 mM Tris pH 8.0, 100 mM NaCl, 4 mM DTT, 0.1 mg/mL BSA, 10% glycerol, 25°C; protein 10 min, then 50 pM RNA 15 min; native 6% PAGE; recombinant protein; protein details: N-term thioredoxin, C-term 6xHis, V5 epitope; label: 5'-32P

## AUUUUUAUAUAGGUAUAGACGGUAUCUCUUCAUUUU [nad4-edit]
  binding result: binds more weakly
